Laboratory results taken from patent EP0548441A1 (Japat Ltd, priority 1991, dated 1993).
HELM strings list residues between dots; [ac] is acetyl, [am] amide, other brackets name non-standard units.

Test: general procedure: Fmoc solid-phase peptide synthesis; Fmoc-Trp-OCH₂-phenyloxybenzyl resin
Conditions: whole synthesis, scale 0.25 mmol

For “PEPTIDE1{[ac].D.K.E.A.V.Y.F.A.H.L.D.I.I.W}$$$$V2.0”, the isolated mass was 159 mg.
